Like-named read-outs stand apart in the source and are kept apart here.
What was measured:
Assay type in all cases: cell-based
[1] = system: HCT-116 (human colorectal cancer cell line); experiment: MTT cytotoxicity assay, HCT-116 under anoxia or normoxia
Procedure: (§1) We focused our attention on the cytotoxicity of the four series of newly-synthesized compounds (10a–e, 11a–e, 12a–e, and 13a–e) under normoxic or anoxic conditions.
(§2) The data was calculated by the Logit method and presented as IC50 values in Table 1.
(§3) All of the newly-synthesized compounds were screened for in vitro cytotoxicity by MTT assay. The exponentially-growing MRC-5, HCT-116, MDA-MB-231, and HT-29 cells were allowed to grow until 80% confluency, the culture medium was discarded, digested with trypsin, separated centrifugally, then fresh culture medium was added and blown gently into single-cell suspension. Then, the cell suspension was seeded into each well of 96-well microculture plates at a concentration of 1.5 × 10^3–3 × 10^3 cells/well.
(§4) The cells were incubated with 50 μL of 2 mg/mL MTT solution for 4 h in a humidified incubator. The supernatant was discarded, and the media were then replaced with 200 μL of dimethyl sulfoxide to dissolve the purple colored formazan crystals formed in the wells, and their absorbances were measured at 492 nm with a microplate reader (Synergy-HT, BioTek Instruments, Winooski, VT, USA); 200 μL DMSO was set as the blank control.
(§5) The anoxia condition was achieved by placing cells in a sealed hypoxia incubator chamber (Catalog Number 27310, Stemcell Technologies, Inc., Vancouver, BC, Canada) filled with 5% CO2 and 95% N2.

[2] = system: MDA-MB-231 (human breast carcinoma cell line, CA IX negative); experiment: MTT cytotoxicity assay, MDA-MB-231 under anoxia or normoxia
Procedure: as §1, §2, §3, §4, §5

[3] = system: HT-29 (human colon carcinoma cell line, overexpresses high amounts of CA IX); experiment: MTT cytotoxicity assay, HT-29 under anoxia or normoxia
Procedure: as §1, §2, §3, §4, §5

[4] = system: MRC-5 (human fetal lung fibroblast cells, normal lung cell); experiment: MTT cytotoxicity assay, MRC-5 normal cells; details: MRC5, MRC-5, normoxia, 96 h MTT
Procedure: as §1, §2, §3
as §4, with “After incubation for 24 h at 37 °C, the four lines of cells were treated with varying concentrations (100, 50, 25, 12.5, and 6.25 μM) of DOX, AAZ, or the derivatives for 96 h. The cells” for “The cells”

Measured: IC50

CC(=O)Nc1nnc(S(N)(=O)=O)s1 [AAZ, acetazolamide, reference compound]
> 100 µM: [1]; HCT-116, anoxia 24 h then normoxia 72 h, MTT, read-out: IC50 HCT-116 Anoxia | [1]; HCT-116, normoxia, 96 h MTT, read-out: IC50 HCT-116 Normoxia | [2]; MDA-MB-231, anoxia 24 h then normoxia 72 h, MTT, read-out: IC50 MDA-MB-231 Anoxia | [2]; MDA-MB-231, normoxia, 96 h MTT, read-out: IC50 MDA-MB-231 Normoxia | [3]; HT-29, anoxia 24 h then normoxia 72 h, MTT, read-out: IC50 HT-29 Anoxia | [3]; HT-29, normoxia, 96 h MTT, read-out: IC50 HT-29 Normoxia | [4]

— paper PMC6273433, “Design, Synthesis and Cytotoxicity of Novel Dihydroartemisinin-Coumarin Hybrids via Click Chemistry” (Molecules, 2016)
